Results reported in publication PMC4520522.
Results are given in words; binding and its absence hold for the method and conditions named. Binding seen in cells or lysates may run through a third protein. A result given as binding can be weak or reduced; the word gives no strength. For some assays here: Tags and fused reporters may be left off the sequences shown. Blank lines part the entries; values can stand above or below the molecule they belong to.

Experiments:
[1] = target: T1, MBD7 (Arabidopsis thaliana) (UniProt Q9FJF4); experiment: pull-down; pull-down assays (Fig 1B); bait, tags and conditions not told in this correction
T1 sequence: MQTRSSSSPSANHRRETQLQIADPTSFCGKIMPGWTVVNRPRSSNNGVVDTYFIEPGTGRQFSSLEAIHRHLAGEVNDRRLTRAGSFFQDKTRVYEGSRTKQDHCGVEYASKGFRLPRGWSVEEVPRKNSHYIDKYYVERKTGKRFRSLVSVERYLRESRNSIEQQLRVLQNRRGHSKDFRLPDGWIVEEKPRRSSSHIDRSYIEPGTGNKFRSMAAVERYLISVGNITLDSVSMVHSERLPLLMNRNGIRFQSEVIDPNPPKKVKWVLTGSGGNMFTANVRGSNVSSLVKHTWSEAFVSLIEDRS

IDM2 (split-luc fusion) = experiment: split reporter; split-luc assays in N. benthamiana leaves; three biological replicates
[2] = target: IDL1 (co-immunoprecipitation in tobacco leaves); experiment: co-IP; co-immunoprecipitation from tobacco (N. benthamiana) leaves after transient expression; anti-GFP for IP, anti-MYC and anti-GFP for immunoblotting
MYC-tagged IDM2 = experiment: as above

Molecule: IDM2
binding [1]: binds

B2: MBD7 (co-immunoprecipitation in tobacco leaves) (protein, UniProt Q9FJF4 1-306)
chain: MQTRSSSSPSANHRRETQLQIADPTSFCGKIMPGWTVVNRPRSSNNGVVDTYFIEPGTGRQFSSLEAIHRHLAGEVNDRRLTRAGSFFQDKTRVYEGSRTKQDHCGVEYASKGFRLPRGWSVEEVPRKNSHYIDKYYVERKTGKRFRSLVSVERYLRESRNSIEQQLRVLQNRRGHSKDFRLPDGWIVEEKPRRSSSHIDRSYIEPGTGNKFRSMAAVERYLISVGNITLDSVSMVHSERLPLLMNRNGIRFQSEVIDPNPPKKVKWVLTGSGGNMFTANVRGSNVSSLVKHTWSEAFVSLIEDRS
binding [2]: binds
binding (MYC-tagged IDM2): binds

Other lines, results leading:

binding [1]: binds
Molecule: IDL1

binding (IDM2 (split-luc fusion)): binds
B1: MBD7 (split-luc fusion) (protein, UniProt Q9FJF4 1-306)
chain: MQTRSSSSPSANHRRETQLQIADPTSFCGKIMPGWTVVNRPRSSNNGVVDTYFIEPGTGRQFSSLEAIHRHLAGEVNDRRLTRAGSFFQDKTRVYEGSRTKQDHCGVEYASKGFRLPRGWSVEEVPRKNSHYIDKYYVERKTGKRFRSLVSVERYLRESRNSIEQQLRVLQNRRGHSKDFRLPDGWIVEEKPRRSSSHIDRSYIEPGTGNKFRSMAAVERYLISVGNITLDSVSMVHSERLPLLMNRNGIRFQSEVIDPNPPKKVKWVLTGSGGNMFTANVRGSNVSSLVKHTWSEAFVSLIEDRS
